Measured values taken from the supplement of paper PMC12823440, “Inhibitors supercharge kinase turnover through native proteolytic circuits” (Nature, 2025).
Counter-ions that a name gives are not always drawn. The list shows a part of the results. Hit calls seldom repeat between salt and free forms of one compound.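 In K562 cells expressing nanoluciferase-fused kinases, luminescence was recorded at 4 h intervals between 2 and 18 h, normalized as percent of control with DMSO at 100% and a positive control at 0%. A significant (2 sigma) signal drop marks a time point as decreased. The authors' rule for a hit is not shown and takes in more than the number of time points.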

Chains of the proteins cited; added tags and fusions are not shown. Lines headed by an entry give the natural chain unless they say otherwise; changes in a name come on top.
UniProt Q08345: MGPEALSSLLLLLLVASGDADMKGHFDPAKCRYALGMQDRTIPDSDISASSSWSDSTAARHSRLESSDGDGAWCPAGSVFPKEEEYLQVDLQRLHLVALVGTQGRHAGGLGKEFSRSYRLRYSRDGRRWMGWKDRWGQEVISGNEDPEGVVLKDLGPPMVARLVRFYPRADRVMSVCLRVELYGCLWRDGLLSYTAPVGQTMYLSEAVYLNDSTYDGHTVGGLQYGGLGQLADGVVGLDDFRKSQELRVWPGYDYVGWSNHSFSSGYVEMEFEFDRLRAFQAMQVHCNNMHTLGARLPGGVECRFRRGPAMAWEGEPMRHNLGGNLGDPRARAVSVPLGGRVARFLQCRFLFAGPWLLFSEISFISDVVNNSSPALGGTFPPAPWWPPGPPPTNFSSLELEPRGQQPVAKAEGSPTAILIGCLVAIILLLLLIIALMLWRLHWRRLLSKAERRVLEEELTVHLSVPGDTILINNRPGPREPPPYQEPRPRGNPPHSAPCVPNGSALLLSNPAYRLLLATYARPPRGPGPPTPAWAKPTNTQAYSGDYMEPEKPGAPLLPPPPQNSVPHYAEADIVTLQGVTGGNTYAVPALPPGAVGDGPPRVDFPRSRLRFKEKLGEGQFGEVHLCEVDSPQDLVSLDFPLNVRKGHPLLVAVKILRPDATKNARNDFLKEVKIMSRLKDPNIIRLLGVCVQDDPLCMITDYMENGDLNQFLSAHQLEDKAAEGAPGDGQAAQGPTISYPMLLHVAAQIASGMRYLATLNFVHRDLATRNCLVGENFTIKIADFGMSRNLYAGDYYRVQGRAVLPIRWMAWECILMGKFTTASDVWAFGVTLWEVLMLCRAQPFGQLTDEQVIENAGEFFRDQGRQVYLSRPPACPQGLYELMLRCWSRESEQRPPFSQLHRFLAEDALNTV
UniProt Q9Y463, whole entry, looked up: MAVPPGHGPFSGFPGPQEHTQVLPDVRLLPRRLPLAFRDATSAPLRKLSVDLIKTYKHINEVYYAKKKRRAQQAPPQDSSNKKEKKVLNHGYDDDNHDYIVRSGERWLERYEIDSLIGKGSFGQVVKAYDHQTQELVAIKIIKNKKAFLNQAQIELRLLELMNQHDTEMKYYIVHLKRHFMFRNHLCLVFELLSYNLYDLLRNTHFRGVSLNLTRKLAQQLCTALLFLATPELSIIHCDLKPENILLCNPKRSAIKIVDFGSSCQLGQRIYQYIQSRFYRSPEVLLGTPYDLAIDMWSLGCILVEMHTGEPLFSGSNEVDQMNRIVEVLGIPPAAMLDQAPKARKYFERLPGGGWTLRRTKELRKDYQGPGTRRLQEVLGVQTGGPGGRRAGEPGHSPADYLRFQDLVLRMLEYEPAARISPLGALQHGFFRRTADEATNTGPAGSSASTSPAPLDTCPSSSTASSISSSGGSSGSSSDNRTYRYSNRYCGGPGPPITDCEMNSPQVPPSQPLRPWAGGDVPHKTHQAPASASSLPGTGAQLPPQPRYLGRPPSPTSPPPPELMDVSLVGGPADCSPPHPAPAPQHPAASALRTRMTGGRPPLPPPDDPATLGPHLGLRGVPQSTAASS
UniProt P29317, whole entry: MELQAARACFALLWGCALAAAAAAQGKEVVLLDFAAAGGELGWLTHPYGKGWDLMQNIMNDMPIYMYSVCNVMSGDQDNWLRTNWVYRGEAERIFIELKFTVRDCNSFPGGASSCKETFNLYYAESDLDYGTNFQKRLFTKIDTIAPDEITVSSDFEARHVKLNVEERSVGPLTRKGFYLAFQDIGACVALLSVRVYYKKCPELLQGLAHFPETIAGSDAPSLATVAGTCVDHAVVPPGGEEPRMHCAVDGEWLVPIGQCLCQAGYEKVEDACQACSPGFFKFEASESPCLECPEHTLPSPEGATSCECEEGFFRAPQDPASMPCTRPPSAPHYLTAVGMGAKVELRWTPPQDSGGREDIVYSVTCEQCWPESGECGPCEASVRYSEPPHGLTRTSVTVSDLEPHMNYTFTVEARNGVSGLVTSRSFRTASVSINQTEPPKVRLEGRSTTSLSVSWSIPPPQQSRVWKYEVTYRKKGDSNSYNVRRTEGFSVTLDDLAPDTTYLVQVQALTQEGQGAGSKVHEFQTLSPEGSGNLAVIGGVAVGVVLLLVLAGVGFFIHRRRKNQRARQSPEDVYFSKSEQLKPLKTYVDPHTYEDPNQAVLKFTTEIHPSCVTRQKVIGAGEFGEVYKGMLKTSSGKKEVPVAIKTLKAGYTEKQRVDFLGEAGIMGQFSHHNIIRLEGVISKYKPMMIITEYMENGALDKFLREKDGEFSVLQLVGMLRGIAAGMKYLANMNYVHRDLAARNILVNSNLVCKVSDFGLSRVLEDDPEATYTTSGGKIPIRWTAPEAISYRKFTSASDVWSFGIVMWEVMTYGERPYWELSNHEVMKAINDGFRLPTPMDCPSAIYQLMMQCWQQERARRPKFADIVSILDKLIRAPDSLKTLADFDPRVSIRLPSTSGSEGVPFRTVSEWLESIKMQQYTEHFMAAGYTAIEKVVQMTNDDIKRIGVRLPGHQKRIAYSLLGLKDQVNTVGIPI
UniProt Q15303, whole entry R711C: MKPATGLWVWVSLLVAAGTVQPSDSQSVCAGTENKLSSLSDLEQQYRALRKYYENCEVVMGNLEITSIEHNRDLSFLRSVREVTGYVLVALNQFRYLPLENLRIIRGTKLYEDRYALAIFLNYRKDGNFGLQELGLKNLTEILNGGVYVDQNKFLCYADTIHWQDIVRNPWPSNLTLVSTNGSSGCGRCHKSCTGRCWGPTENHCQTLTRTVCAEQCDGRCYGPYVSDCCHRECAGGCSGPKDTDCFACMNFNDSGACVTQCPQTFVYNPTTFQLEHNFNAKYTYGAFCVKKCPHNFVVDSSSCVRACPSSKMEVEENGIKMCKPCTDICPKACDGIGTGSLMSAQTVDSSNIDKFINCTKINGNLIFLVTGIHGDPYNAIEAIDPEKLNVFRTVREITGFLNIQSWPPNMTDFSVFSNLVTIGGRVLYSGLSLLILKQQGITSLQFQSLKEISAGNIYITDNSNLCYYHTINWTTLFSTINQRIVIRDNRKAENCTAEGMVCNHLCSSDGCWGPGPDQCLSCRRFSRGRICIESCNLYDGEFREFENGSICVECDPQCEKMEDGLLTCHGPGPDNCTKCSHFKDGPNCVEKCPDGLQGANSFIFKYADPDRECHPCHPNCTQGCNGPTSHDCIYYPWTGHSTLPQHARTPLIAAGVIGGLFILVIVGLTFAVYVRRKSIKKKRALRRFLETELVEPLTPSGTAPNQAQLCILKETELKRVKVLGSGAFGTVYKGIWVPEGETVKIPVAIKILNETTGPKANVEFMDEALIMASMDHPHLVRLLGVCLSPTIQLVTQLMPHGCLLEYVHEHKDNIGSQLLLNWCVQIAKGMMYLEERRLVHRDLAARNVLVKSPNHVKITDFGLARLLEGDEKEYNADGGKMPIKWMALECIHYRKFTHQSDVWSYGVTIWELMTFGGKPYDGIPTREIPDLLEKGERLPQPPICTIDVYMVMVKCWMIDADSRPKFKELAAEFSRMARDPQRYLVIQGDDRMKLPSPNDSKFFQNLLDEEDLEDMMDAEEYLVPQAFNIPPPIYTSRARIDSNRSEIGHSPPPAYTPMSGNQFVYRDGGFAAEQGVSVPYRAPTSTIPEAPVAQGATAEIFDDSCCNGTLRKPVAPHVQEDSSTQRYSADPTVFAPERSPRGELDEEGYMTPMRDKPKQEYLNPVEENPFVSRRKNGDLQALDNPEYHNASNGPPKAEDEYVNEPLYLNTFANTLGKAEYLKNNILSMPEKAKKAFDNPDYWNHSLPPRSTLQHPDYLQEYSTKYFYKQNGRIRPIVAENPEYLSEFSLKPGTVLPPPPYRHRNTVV
UniProt O75460: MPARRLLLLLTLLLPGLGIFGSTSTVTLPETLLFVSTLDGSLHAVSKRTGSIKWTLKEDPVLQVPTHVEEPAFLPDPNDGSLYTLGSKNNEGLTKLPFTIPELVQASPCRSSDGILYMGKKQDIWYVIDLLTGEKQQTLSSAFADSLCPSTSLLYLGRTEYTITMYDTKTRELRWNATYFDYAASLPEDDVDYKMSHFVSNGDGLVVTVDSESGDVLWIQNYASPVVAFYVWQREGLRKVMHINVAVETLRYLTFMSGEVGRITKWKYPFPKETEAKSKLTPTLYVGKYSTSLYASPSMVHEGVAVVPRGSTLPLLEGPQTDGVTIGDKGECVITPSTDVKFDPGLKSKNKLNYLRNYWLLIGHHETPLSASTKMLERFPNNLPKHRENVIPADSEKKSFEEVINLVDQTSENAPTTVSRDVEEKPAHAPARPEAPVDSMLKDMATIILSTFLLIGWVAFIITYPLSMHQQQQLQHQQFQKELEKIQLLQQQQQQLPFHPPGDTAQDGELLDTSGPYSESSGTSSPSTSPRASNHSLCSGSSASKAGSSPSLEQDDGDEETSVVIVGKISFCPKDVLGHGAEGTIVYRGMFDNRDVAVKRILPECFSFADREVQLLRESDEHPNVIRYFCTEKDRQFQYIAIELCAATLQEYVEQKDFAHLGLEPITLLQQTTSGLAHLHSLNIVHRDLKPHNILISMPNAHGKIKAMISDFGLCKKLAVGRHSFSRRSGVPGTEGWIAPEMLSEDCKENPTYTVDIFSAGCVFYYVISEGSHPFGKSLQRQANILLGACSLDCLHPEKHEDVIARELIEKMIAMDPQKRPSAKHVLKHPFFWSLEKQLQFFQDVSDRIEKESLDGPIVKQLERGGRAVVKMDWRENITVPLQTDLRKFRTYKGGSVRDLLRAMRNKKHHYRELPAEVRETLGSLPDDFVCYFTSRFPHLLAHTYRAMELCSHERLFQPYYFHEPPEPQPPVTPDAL
UniProt P21802, whole entry, looked up: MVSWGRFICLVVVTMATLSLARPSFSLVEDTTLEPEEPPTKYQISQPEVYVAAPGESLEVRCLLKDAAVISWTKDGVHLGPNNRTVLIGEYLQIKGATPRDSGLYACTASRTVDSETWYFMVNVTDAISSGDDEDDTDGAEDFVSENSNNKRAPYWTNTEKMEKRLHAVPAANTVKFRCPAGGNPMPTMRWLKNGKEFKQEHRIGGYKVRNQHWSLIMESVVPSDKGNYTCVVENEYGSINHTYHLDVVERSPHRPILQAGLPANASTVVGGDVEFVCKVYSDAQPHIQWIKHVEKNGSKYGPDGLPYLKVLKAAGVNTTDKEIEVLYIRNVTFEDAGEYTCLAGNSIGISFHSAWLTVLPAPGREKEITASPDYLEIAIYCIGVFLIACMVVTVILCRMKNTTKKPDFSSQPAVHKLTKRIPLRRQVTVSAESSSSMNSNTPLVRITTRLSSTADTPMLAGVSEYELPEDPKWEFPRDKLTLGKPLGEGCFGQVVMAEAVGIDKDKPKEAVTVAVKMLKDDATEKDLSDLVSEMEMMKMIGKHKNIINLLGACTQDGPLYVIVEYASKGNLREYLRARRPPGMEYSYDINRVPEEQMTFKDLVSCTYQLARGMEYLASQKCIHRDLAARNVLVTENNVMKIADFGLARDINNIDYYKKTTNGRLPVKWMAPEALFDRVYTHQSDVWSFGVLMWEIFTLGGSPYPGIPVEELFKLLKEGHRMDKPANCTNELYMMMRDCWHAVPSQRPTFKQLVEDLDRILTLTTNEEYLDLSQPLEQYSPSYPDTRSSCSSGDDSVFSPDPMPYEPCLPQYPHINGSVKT
UniProt P22607, whole entry, looked up: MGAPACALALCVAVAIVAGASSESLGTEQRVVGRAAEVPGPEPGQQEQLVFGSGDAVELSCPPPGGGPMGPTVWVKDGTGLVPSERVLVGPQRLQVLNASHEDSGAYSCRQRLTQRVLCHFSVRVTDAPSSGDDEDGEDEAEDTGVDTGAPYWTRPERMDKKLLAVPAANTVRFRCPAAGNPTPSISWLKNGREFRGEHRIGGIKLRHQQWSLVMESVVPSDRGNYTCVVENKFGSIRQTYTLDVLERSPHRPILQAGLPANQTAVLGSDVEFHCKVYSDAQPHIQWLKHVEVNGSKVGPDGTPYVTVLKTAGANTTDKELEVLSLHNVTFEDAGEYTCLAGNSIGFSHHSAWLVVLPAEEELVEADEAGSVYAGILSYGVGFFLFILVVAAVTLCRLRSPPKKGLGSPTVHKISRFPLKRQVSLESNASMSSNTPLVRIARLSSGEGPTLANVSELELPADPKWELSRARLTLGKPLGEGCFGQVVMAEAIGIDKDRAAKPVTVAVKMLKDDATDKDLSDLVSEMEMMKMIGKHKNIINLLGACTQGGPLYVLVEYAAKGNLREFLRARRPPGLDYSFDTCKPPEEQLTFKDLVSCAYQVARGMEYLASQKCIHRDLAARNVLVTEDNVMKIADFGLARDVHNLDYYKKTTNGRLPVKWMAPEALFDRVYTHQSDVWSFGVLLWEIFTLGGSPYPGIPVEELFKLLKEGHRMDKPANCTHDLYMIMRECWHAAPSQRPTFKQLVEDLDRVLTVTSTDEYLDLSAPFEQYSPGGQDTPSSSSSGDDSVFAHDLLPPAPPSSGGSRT

Experiments:
Experiment in all cases: number of time points (of 5) at which kinase-Nluc abundance scored as decreased, DMSO-normalised (count); higher = more persistent destabilization
Details in all cases: K562; 2-18 h
CSNK1A1 = CSNK1A1 (UniProt P48729)
CSNK1D = CSNK1D (UniProt P48730)
DDR1 = DDR1 (UniProt Q08345)
DYRK1B = DYRK1B (UniProt Q9Y463)
DYRK2 = DYRK2 (UniProt Q92630)
EGFR = EGFR (UniProt P00533)
EGFR_G719S = EGFR_G719S (UniProt P00533)
EGFR_G719S_T790M = EGFR_G719S_T790M (UniProt P00533)
EGFR_L718V = EGFR_L718V (UniProt P00533)
EGFR_L858R = EGFR_L858R (UniProt P00533)
EGFR_L861Q = EGFR_L861Q (UniProt P00533)
EGFR_T790M = EGFR_T790M (UniProt P00533)
EPHA2 = EPHA2 (UniProt P29317)
ERBB3 = ERBB3 (UniProt P21860)
[1] = target: ERBB4_R711C (clone: ERBB4_mut) (UniProt Q15303)
ERN1 = ERN1 (UniProt O75460)
FGFR1 = FGFR1 (UniProt P11362)
FGFR2 = FGFR2 (UniProt P21802)
FGFR3 = FGFR3 (UniProt P22607)
FGR = FGR (UniProt P09769)

Structure (SMILES) | number of time points (CSNK1A1) | number of time points (CSNK1D) | number of time points (DDR1) | number of time points (DYRK1B) | number of time points (DYRK2) | number of time points (EGFR) | number of time points (EGFR_G719S) | number of time points (EGFR_G719S_T790M) | number of time points (EGFR_L718V) | number of time points (EGFR_L858R) | number of time points (EGFR_L861Q) | number of time points (EGFR_T790M) | number of time points (EPHA2) | number of time points (ERBB3) | number of time points [1] | number of time points (ERN1) | number of time points (FGFR1) | number of time points (FGFR2) | number of time points (FGFR3) | number of time points (FGR)
C[C@@H]1O[C@@H](O[C@@H]2[C@@H](O)[C@H](OCCc3ccc(O)c(O)c3)O[C@H](CO)[C@H]2OC(=O)/C=C/c2ccc(O)c(O)c2)[C@H](O)[C@H](O)[C@H]1O [Verbascoside] (10 µM) | 0 | 0 | 0 | 0 | 0 | 0 | 0 | 0 | 0 | 0 | 0 | 0 | 0 | 0 | 0 | 0 | 0 | 0 | 0 | 0
Cc1cnc(NC2CCOCC2)nc1-n1cnc(C(=O)N[C@H](CN)c2cc(F)cc(Cl)c2)c1 (10 µM) | 0 | 0 | 0 | 0 | 0 | 0 | 0 | 0 | 0 | 0 | 0 | 0 | 0 | 0 | 1 | 0 | 0 | 0 | 0 | 0
C[C@@H]1CC(=O)c2c(ccc3c2C(=O)c2cccc(O)c2C3=O)C1 [Ochromycinone] (10 µM) | 0 | 0 | 0 | 0 | 0 | 0 | 0 | 0 | 0 | 0 | 0 | 0 | 0 | 0 | 0 | 0 | 0 | 0 | 0 | 0
C=CC(=O)Nc1cc(Nc2nccc(-n3cc(CN(C)C)c(-c4ccccc4)n3)n2)c(OC)cc1N1CCOCC1 [Lazertinib] (10 µM) | 0 | 0 | 0 | 0 | 0 | 0 | 0 | 0 | 0 | 0 | 0 | 0 | 0 | 0 | 0 | 0 | 0 | 0 | 0 | 0
C[C@@H]1COCCN1c1nc(-c2cnc(N)cc2C(F)F)nc(N2[C@H](C)COC[C@@H]2C)n1 (2.5 µM) | 0 | 0 | 3 | 0 | 4 | 0 | 0 | 1 | 0 | 0 | 0 | 0 | 0 | 1 | 1 | 0 | 0 | 0 | 0 | 0
CC(C)CNc1ccnc(NCc2csc(-c3ccccc3)n2)n1 [KHS101 hydrochloride] (2.5 µM) | 0 | 0 | 0 | 0 | 2 | 0 | 1 | 1 | 0 | 0 | 2 | 0 | 0 | 0 | 2 | 0 | 0 | 0 | 0 | 0
NC(=S)n1[nH]c(-c2ccc([N+](=O)[O-])cc2)c(N=Nc2cccc(Cl)c2)c1=O (2.5 µM) | 0 | 0 | 0 | 0 | 0 | 0 | 0 | 0 | 0 | 0 | 0 | 0 | 0 | 0 | 0 | 0 | 0 | 0 | 0 | 0
CNC(=O)c1ccccc1Nc1nc(Nc2ccc3c(c2OC)CCC[C@H](N2CCN(CCO)CC2)C3)ncc1Cl (10 µM) | 0 | 0 | 2 | 1 | 4 | 0 | 1 | 1 | 1 | 1 | 2 | 0 | 0 | 3 | 3 | 2 | 1 | 3 | 0 | 0
Oc1ccc(/C=C/c2cc(O)cc(O)c2)cc1 [Resveratrol] (10 µM) | 0 | 0 | 0 | 0 | 0 | 0 | 0 | 0 | 0 | 0 | 0 | 0 | 0 | 0 | 0 | 0 | 0 | 0 | 0 | 0
CCc1cncnc1N1CCN(Cc2nc3ccc(C(F)(F)F)cc3[nH]2)CC1 (10 µM) | 0 | 0 | 0 | 0 | 0 | 0 | 0 | 0 | 0 | 0 | 0 | 0 | 0 | 0 | 0 | 0 | 0 | 0 | 0 | 0
Cc1ccc(Oc2nc3cc(-c4ccc(-c5ccccc5)cc4)c(Cl)cc3[nH]2)cc1C(=O)O (10 µM) | 0 | 0 | 0 | 0 | 0 | 0 | 0 | 0 | 0 | 0 | 0 | 0 | 0 | 0 | 0 | 0 | 0 | 0 | 0 | 0
CC(C)c1cccc(C(C)C)c1N1C(=O)c2ccc(N)cc2C1=O (2.5 µM) | 0 | 0 | 0 | 0 | 0 | 0 | 0 | 0 | 0 | 0 | 0 | 0 | 0 | 0 | 0 | 0 | 0 | 0 | 0 | 0
CCCCCCCC/C=C\CCCCCCCCCCCC(=O)O [Erucic acid] (10 µM) | 0 | 0 | 0 | 0 | 0 | 0 | 0 | 0 | 0 | 0 | 0 | 0 | 0 | 0 | 0 | 0 | 0 | 0 | 0 | 0
Cc1ccc(-c2csc3ncnc(SCCC(=O)O)c23)cc1 (10 µM) | 0 | 0 | 0 | 0 | 0 | 0 | 0 | 0 | 0 | 0 | 0 | 0 | 0 | 0 | 0 | 0 | 0 | 0 | 0 | 0
c1ccc(-c2nc(=NCCN3CCOCC3)sn2-c2ccccc2)cc1 [VP3.15 (dihydrobromide)] (10 µM) | 0 | 0 | 0 | 0 | 0 | 0 | 0 | 0 | 0 | 0 | 0 | 0 | 0 | 0 | 0 | 0 | 0 | 0 | 0 | 0
CCc1cccc(CC)c1NC(=O)N1Cc2[nH]nc(NC(=O)c3ccc(N4CCN(C)CC4)cc3)c2C1 (2.5 µM) | 0 | 1 | 4 | 1 | 3 | 1 | 3 | 2 | 2 | 2 | 2 | 1 | 1 | 3 | 3 | 1 | 2 | 3 | 0 | 0
COc1cc(N2CCOCC2)ccc1Nc1ncc(Cl)c(Nc2ccccc2NS(C)(=O)=O)n1 (2.5 µM) | 0 | 0 | 0 | 0 | 0 | 0 | 0 | 0 | 0 | 0 | 0 | 0 | 0 | 0 | 0 | 0 | 0 | 0 | 0 | 0
c1ccc(-c2nc3c(c(-n4ccc5cnccc54)n2)CCC3)nc1 (10 µM) | 0 | 0 | 0 | 0 | 0 | 0 | 0 | 0 | 0 | 0 | 0 | 0 | 0 | 0 | 0 | 0 | 0 | 0 | 0 | 0
Cc1nn(C)c2c1C(c1ccc(C(F)(F)F)cc1)C(C#N)=C(N)O2 (stereo not given) (10 µM) | 0 | 0 | 0 | 0 | 0 | 0 | 0 | 0 | 0 | 0 | 0 | 0 | 0 | 0 | 0 | 0 | 0 | 0 | 0 | 0
O=C(N[C@@H](C1CC1)C(F)(F)F)c1cc(-c2cnn3cc(-c4ccc(F)cc4)cnc23)cs1 (10 µM) | 0 | 0 | 0 | 0 | 0 | 0 | 0 | 0 | 0 | 0 | 0 | 0 | 0 | 0 | 0 | 0 | 0 | 0 | 0 | 0
Nc1nc(N)c2nc(-c3cccc(O)c3)cnc2n1 (10 µM) | 0 | 0 | 0 | 0 | 0 | 0 | 0 | 0 | 0 | 0 | 0 | 0 | 0 | 0 | 0 | 0 | 0 | 0 | 0 | 0
O=C(Nc1cccc(C(F)(F)F)c1)c1cccc2cc(Oc3cc(CO)ncn3)ccc12 (10 µM) | 0 | 0 | 0 | 0 | 0 | 0 | 0 | 0 | 0 | 0 | 0 | 0 | 0 | 0 | 0 | 0 | 0 | 0 | 0 | 0
COc1ccc(S(=O)(=O)NCc2ccc(C(=O)NCCc3ccc(Cl)cn3)cc2)cc1 (10 µM) | 0 | 0 | 0 | 0 | 0 | 0 | 0 | 0 | 0 | 0 | 0 | 0 | 0 | 0 | 0 | 0 | 0 | 0 | 0 | 0
O=C1NC(=O)C(c2cnc3ccccn23)=C1c1cn2c3c(cc(F)cc13)CNCC2 [GSK-3 inhibitor 1] (2.5 µM) | 0 | 0 | 0 | 0 | 0 | 0 | 0 | 0 | 0 | 0 | 0 | 0 | 0 | 0 | 0 | 0 | 0 | 0 | 0 | 0

Fetched one by one from the list above, 2 records:
Structure (SMILES) | number of time points (CSNK1A1) | number of time points (CSNK1D) | number of time points (DDR1) | number of time points (DYRK1B) | number of time points (DYRK2) | number of time points (EGFR) | number of time points (EGFR_G719S) | number of time points (EGFR_G719S_T790M) | number of time points (EGFR_L718V) | number of time points (EGFR_L858R) | number of time points (EGFR_L861Q) | number of time points (EGFR_T790M) | number of time points (EPHA2) | number of time points (ERBB3) | number of time points [1] | number of time points (ERN1) | number of time points (FGFR1) | number of time points (FGFR2) | number of time points (FGFR3) | number of time points (FGR)
O=C1NC(=O)C(c2cnc3ccccn23)=C1c1cn2c3c(cc(F)cc13)CNCC2 [GSK-3 inhibitor 1] (2.5 µM) | 0 | 0 | 0 | 0 | 0 | 0 | 0 | 0 | 0 | 0 | 0 | 0 | 0 | 0 | 0 | 0 | 0 | 0 | 0 | 0
Oc1ccc(/C=C/c2cc(O)cc(O)c2)cc1 [Resveratrol] (10 µM) | 0 | 0 | 0 | 0 | 0 | 0 | 0 | 0 | 0 | 0 | 0 | 0 | 0 | 0 | 0 | 0 | 0 | 0 | 0 | 0
